# From publication PMC3174182
# Like-named read-outs stand apart in the source and are kept apart here. Results are given in words; binding and its absence hold for the method and conditions named. In cells and extracts the contact can be indirect. For part of these data: Sequences can lack the tags named with a protein.
# What was measured:
# Assay in all cases: FRET or BRET; FRET efficiency by donor (CFP) de-quenching after photobleaching of the acceptor (YFP), under TIRF illumination (plasma membrane), in living transfected cells co-expressing the CFP- and YFP-labeled proteins
# [1] = biological target: hERG Δ2-135/Y542C channel C-terminally labeled with CFP (human) (UniProt Q12809)
# [2] = biological target: wild-type hERG channel labeled with CFP at the C-terminus (hERG 1158CFP) (human) (UniProt Q12809)
# [3] = biological target: wild-type hERG channel labeled with CFP at the C-terminus (hERG 1158CFP) (human) (UniProt Q12809); remark: listed apart in the source
Molecule,binding [1],binding [2],binding [3]
recombinant hERG N-terminal eag domain fragment fused to eYFP (N1-135/YFP) (from UniProt Q12809 1-135) (domain or fragment),no binding,no binding,–
"TRH receptor C-terminally labeled with YFP (TRH-R 412YFP) (receptor, UniProt Q01717 1-412) MENETVSELNQTELPPQVAVALEYQVVTILLVVVICGLGIVGNIMVVLVVMRTKHMRTATNCYLVSLAVADLMVLVAAGLPNITDSIYGSWVYGYVGCLCITYLQYLGINASSCSITAFTIERYIAICHPIKAQFLCTFSRAKKIIIFVWAFTSIYCMLWFFLLDLNISTYKDAIVISCGYKISRNYYSPIYLMDFGVFYVMPMILATVLYGFIARILFLNPIPSDPKENSKTWKNDSTHQNKNMNLNTTNRCFNSTVSSRKQVTKMLAVVVILFALLWMPYRTLVVVNSFLSSPFQENWFLLFCRICIYLNSAINPVIYNLMSQKFRAAFRKLCNCKQKPTEKAANYSVALNYSVIKESDRFSTELDDITVTDTYVSTTKVSFDDTCLASEKNGPSSCTYGYSLTAKQEKI",–,–,no binding
